The results in this text go back to article PMC12141716.

By UniProt entry, the sequences of proteins in these tests, tags left out. Where a name states a change or a piece, a line headed by the entry shows the natural chain unless it says otherwise.
UniProt Q4J973: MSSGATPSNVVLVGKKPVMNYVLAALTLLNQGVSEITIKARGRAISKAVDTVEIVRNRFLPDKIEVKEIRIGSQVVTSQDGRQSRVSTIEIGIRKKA

For part of these data: The comparison behind a weaker result is the experiment's own reference, which may not be listed here. For part of these data: Protein sequences can lack the tags named with them. For part of these data: The exact form of at least one protein or probe is not confirmed. For part of these data: Results from cells or extracts need not show a direct contact. For part of these data: No signal at the amounts used counts as a negative.

Series [1] deals with Alba (Sulfolobus acidocaldarius) (UniProt Q4J973). Briefly: DNA affinity pull-down, mass spectrometry. The settings on record: 5'-biotin on bottom strand; protein in an extract; label: biotin.
Series [2] has as its target T1, UBP (Saci_0847) (Sulfolobus acidocaldarius) (UniProt Q4JAG5).
T1 sequence (looked up, limits assumed): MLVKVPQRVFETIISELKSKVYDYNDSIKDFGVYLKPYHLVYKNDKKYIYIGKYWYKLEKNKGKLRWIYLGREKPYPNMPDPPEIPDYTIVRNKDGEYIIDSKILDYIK
Kind of series: DNA affinity pull-down, mass spectrometry. The conditions noted are these: 5'-biotin on bottom strand; protein in an extract; label: biotin.

Series [3] deals with T2, UBP (Sulfolobus islandicus REY15A) (UniProt F0NFD3).
T2 sequence (looked up): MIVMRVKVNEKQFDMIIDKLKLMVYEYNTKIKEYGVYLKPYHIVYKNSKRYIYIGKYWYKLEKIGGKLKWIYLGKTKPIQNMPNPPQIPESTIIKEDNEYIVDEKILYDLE
Kind of series: EMSA. The settings on record: EMSA: 50 mM K-acetate, 20 mM Tris-acetate, 10 mM Mg-acetate, 1 mM DTT, pH 7.9, 5-10% glycerol, 70 mM NaCl, 800 ng salmon sperm DNA per 10 ul, room temperature 10 min, recombinant protein, residues 1-111, label: 5'-32P. For orientation: A gel shift assay detects complexes by their altered migration in electrophoresis.

Take “GCTTGGTTTAATTATACAAACTCAATATTT (double strand) [UCM30]”: the binding result in series [1] and in series [2] was “binds” in each case.
Consider “GCTTGGTTTACGGCGCACCCATCAATATTT (double strand) [CTRL30 (mutated ucm)]”, for which the binding result in series [1] is listed as “binds”; in series [2], “no binding”.
Take “TTGTTATAATTAGATAACCATGCGCACCCCTAATTGTATAAGAATGAAAT (double strand) [M7 50 bp (P11/P12)]”: the binding result in series [3] (greatly reduced) is reported as “binds more weakly”.
With “TTGTTATAATTCTCGCCAACGTATACAAAAGAATTGTATAAGAATGAAAT (double strand) [M6 50 bp (P9/P10)]”, in series [3] (complex yield reduced, unbound DNA profile similar to WT), the binding result is listed as “binds more weakly”.
